According to patent publication US4956363A, “Treatment of cognitive and behavioral disorders associated with aging and with dementia syndromes” (U C B S.A., priority 1988, dated 1990):
At least one read-out could not be matched to a standard name with certainty.

These compounds were tested on amnesia induced by scopolamine (assay: Multiple-trial passive avoidance: mnemic retention (amnesia induced by scopolamine)). Settings: compound i.p. at the dose of the line + scopolamine 0.5 mg i.p.
Experimental: To this end, the method of multiple-trial passive avoidance has been used. This method is well-known for evaluating the effects which a product exerts on the memory and learning (A. FINE et al., Proc. Natl. Acad. Sci. U.S.A., 82, (1985), 5227-5230).
The test is carried out on male Sprague-Dawley rats (160-200 g). which are kept in standard cages throughout the experiment.
The apparatus used is a transparent square cage with 35 cm sides and 25 cm high, fitted with a grid floor which can be electrified. An insulating rubber mat (10×17 cm) is placed on the floor in one of the corners of the cage.
Each animal is subjected to four tests at times 0, 4, 24 and 28 hours. In the first test (time 0), the animal is placed on the rubber mat and the time which it takes to decide to leave this position to explore the cage is recorded. After 20 seconds of exploration, the rat receives an electric shock (3 seconds duration) in the paws, causing a flight reaction. The rat is immediately removed from the apparatus and replaced in its original cage. In the course of the three subsequent tests (times: 4, 24 and 28 hours), the animal is replaced on the rubber mat and the time taken to leave this position is recorded. When the four paws of the animal rest on the grid, it receives an electric shock and is immediately removed from the apparatus.
At the start of the experiment, the rats are divided into 4 homogeneous groups of 15 animals. Thirty minutes before each test, each group of animals is subjected to a predetermined treatment:
Groups 1 and 2 are used in the first experiment and groups 3 and 4 are used in the second experiment.
The differences observed are analyzed statistically by the Mann-Whitney method.

Row | SMILES | Period of remaining on the mat, group 4, 4 hours
1 | CCCc1nc(N2CCOCC2)nc(N(C)C(C)=O)n1 | 8.1 s
2 | CCCc1nc(NCCOC(C)=O)nc(N2CCOCC2)n1 | 24.0 s
3 | CCCc1nc(NC(CC)CO)nc(N2CCOCC2)n1 (stereo not drawn) | 7.3 s
